Experimental data reported in publication PMC8096250.
For at least one entry, the source does not settle the construct or the ends of the probe. A negative result means that nothing was seen under these conditions.

Protein sequences, listed by entry. Tags and fused reporters are not part of them. Lines headed by an entry give the natural chain unless they say otherwise; changes in a name come on top.
UniProt P32495: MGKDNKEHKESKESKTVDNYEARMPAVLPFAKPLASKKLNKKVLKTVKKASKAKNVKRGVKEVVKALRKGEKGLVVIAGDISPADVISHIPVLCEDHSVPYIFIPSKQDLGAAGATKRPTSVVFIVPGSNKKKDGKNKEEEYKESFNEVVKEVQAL

Biological target: Nhp2 K48-Cy3 S82W,K48PrK (Saccharomyces cerevisiae) (UniProt P32495)
Test: smFRET
Settings: omission of NCG; 5-amino-modified U (apical stem labeling site, U61); smFRET with immobilized 3'-biotin RNA; recombinant protein; protein details: His tag implied (Ni-NTA); label: Cy5, 3'-biotin

“GGGACUGCAAAAGAAGCGGCGAGGCAGCCCACAUCAAGUGGAACUACACAGACUUCCUUGUCGCGAUACUACGGUCCCAAGAGCAAUCCU [H5-Cy5 (snR81 5' hairpin)]”: no binding.
